PubChem BioAssay AID652272 – Drosophila RNAi Screening Center, 2013
Purpose: 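Genome-wide knock-down search for components of Hedgehog signalling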 (primary screen). Cells: Drosophila clone 8 (Cl8) cells. Reagent: long dsRNA against Drosophila genes. Measured: 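Plate reader light from a firefly reporter under a ptc promoter fragment that responds to Hedgehog, with Renilla light as transfection reference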. Scale: firefly Hh reporter signal: higher = more ptc reporter light; Renilla reference signal: higher = more Renilla control light. Active means: 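Hit when the z-score averaged over two replicates is under -2 or over +3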. Calls: active = hit: reporter lowered or raised; inactive = not a hit.
The screen tested about 21,000 reagents; below is a random part of those that have a named target and a result. In the full data, 503 (2.4%) are marked active. 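Raw plate light values, not normalised; calls rest on replicate z-scores that were not deposited; hits include reporter decreases as well as increases.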 Entries without a mark were called inactive. A plus sign joins genes that one reagent is predicted to hit. The record does not give: the amount of reagent, the time to read-out.

Against CG14926 (GeneID 34567) [DRSC02409], the entry reads firefly Hh reporter signal, replicate 1 = 1.51e5; firefly Hh reporter signal, replicate 2 = 1.04e5; Renilla reference signal, replicate 1 = 3665; Renilla reference signal, replicate 2 = 7946.
With knock-down of Uch-L5 (GeneID 39102) [DRSC11314] the results were firefly Hh reporter signal, replicate 1 = 1.10e5; firefly Hh reporter signal, replicate 2 = 27184; Renilla reference signal, replicate 1 = 5264; Renilla reference signal, replicate 2 = 1916.
CG13946 (GeneID 50198) [DRSC00364] showed firefly Hh reporter signal, replicate 1 = 94045; firefly Hh reporter signal, replicate 2 = 74790; Renilla reference signal, replicate 1 = 2116; Renilla reference signal, replicate 2 = 1923.
Depletion of Arts + Apl [DRSC10349] resulted in: firefly Hh reporter signal, replicate 1 = 1.68e5; Renilla reference signal, replicate 1 = 6429; Renilla reference signal, replicate 2 = 4601.
With knock-down of tsh (GeneID 35430) [DRSC03740], the screen gave firefly Hh reporter signal, replicate 1 = 86312; firefly Hh reporter signal, replicate 2 = 61353; Renilla reference signal, replicate 1 = 2311; Renilla reference signal, replicate 2 = 5476.
For Kap3 (GeneID 32071) [DRSC19426], the values are firefly Hh reporter signal, replicate 1 = 1.78e5; firefly Hh reporter signal, replicate 2 = 96904; Renilla reference signal, replicate 1 = 4125; Renilla reference signal, replicate 2 = 2569.
Knock-down of Osi5 (GeneID 40759) [DRSC12276] resulted in: firefly Hh reporter signal, replicate 1 = 88857; firefly Hh reporter signal, replicate 2 = 1.08e5; Renilla reference signal, replicate 1 = 3328; Renilla reference signal, replicate 2 = 2930.
Against epsilonTry (GeneID 49080) [DRSC07611] the deposit lists firefly Hh reporter signal, replicate 1 = 88428; firefly Hh reporter signal, replicate 2 = 47273; Renilla reference signal, replicate 1 = 2253; Renilla reference signal, replicate 2 = 3360.
CG15742 (GeneID 32276) [DRSC19708] gave firefly Hh reporter signal, replicate 1 = 84499; firefly Hh reporter signal, replicate 2 = 1.07e5; Renilla reference signal, replicate 1 = 2541; Renilla reference signal, replicate 2 = 2917.
lncRNA:CR9162 (GeneID 12798573) [DRSC03151] showed firefly Hh reporter signal, replicate 1 = 1.10e5; firefly Hh reporter signal, replicate 2 = 1.11e5; Renilla reference signal, replicate 1 = 5164; Renilla reference signal, replicate 2 = 4557.
With knock-down of E(spl)mdelta-HLH (GeneID 43150) [DRSC16698], the record shows firefly Hh reporter signal, replicate 1 = 5.23e5; firefly Hh reporter signal, replicate 2 = 1.06e5; Renilla reference signal, replicate 1 = 27248; Renilla reference signal, replicate 2 = 8128.
Depletion of CG13585 (GeneID 37918) [DRSC04221] gave: firefly Hh reporter signal, replicate 1 = 91747; firefly Hh reporter signal, replicate 2 = 71082; Renilla reference signal, replicate 1 = 1808; Renilla reference signal, replicate 2 = 6425.
With knock-down of Mal-A1 (GeneID 35824) [DRSC07461] the results were firefly Hh reporter signal, replicate 1 = 78518; firefly Hh reporter signal, replicate 2 = 48289; Renilla reference signal, replicate 1 = 1702; Renilla reference signal, replicate 2 = 3698.
With knock-down of PolD2 (GeneID 38228) [DRSC08147] the results were firefly Hh reporter signal, replicate 1 = 1.02e5; firefly Hh reporter signal, replicate 2 = 70428; Renilla reference signal, replicate 1 = 4725; Renilla reference signal, replicate 2 = 3248.
After knock-down of CHMP2B (GeneID 38599) [DRSC10436], the record shows firefly Hh reporter signal, replicate 1 = 1.29e5; firefly Hh reporter signal, replicate 2 = 84632; Renilla reference signal, replicate 1 = 4784; Renilla reference signal, replicate 2 = 2992.
TwdlH (GeneID 43208) [DRSC14735] gave firefly Hh reporter signal, replicate 1 = 1.30e5; firefly Hh reporter signal, replicate 2 = 1.12e5; Renilla reference signal, replicate 1 = 2100; Renilla reference signal, replicate 2 = 2925.
With knock-down of CG18262 (GeneID 31745) [DRSC18149], the screen gave firefly Hh reporter signal, replicate 1 = 86605; firefly Hh reporter signal, replicate 2 = 2.08e5; Renilla reference signal, replicate 1 = 3088; Renilla reference signal, replicate 2 = 8385.
Silencing of CG11635 (GeneID 35808) [DRSC06075] came out at: firefly Hh reporter signal, replicate 1 = 92983; firefly Hh reporter signal, replicate 2 = 61242; Renilla reference signal, replicate 1 = 2294; Renilla reference signal, replicate 2 = 5229.
With knock-down of Chchd3 (GeneID 43672) [DRSC16981], the screen gave firefly Hh reporter signal, replicate 1 = 49877; firefly Hh reporter signal, replicate 2 = 68858; Renilla reference signal, replicate 1 = 2092; Renilla reference signal, replicate 2 = 2672.
After knock-down of CG34342 (GeneID 5740152) [DRSC09756] the results were firefly Hh reporter signal, replicate 1 = 39606; firefly Hh reporter signal, replicate 2 = 79671; Renilla reference signal, replicate 1 = 4723; Renilla reference signal, replicate 2 = 5836.
After knock-down of CG6700 (GeneID 34496) [DRSC02980], the screen gave firefly Hh reporter signal, replicate 1 = 76825; firefly Hh reporter signal, replicate 2 = 71265; Renilla reference signal, replicate 1 = 2731; Renilla reference signal, replicate 2 = 2780.
ppl (GeneID 40349) [DRSC11899] gave firefly Hh reporter signal, replicate 1 = 1.32e5; firefly Hh reporter signal, replicate 2 = 63847; Renilla reference signal, replicate 1 = 4459; Renilla reference signal, replicate 2 = 2429.
Against mthl10 (GeneID 38057) [DRSC08504], the values are firefly Hh reporter signal, replicate 1 = 80120; firefly Hh reporter signal, replicate 2 = 34880; Renilla reference signal, replicate 1 = 2763; Renilla reference signal, replicate 2 = 2624.
Depletion of mthl10 (GeneID 38057) [DRSC08505] gave: firefly Hh reporter signal, replicate 1 = 1.31e5; firefly Hh reporter signal, replicate 2 = 60154; Renilla reference signal, replicate 1 = 4939; Renilla reference signal, replicate 2 = 4616.
CG3894 (GeneID 37959) [DRSC01762] showed firefly Hh reporter signal, replicate 1 = 1.34e5; firefly Hh reporter signal, replicate 2 = 2.79e5; Renilla reference signal, replicate 1 = 3737; Renilla reference signal, replicate 2 = 11709.
CG3894 (GeneID 37959) [DRSC04012] showed firefly Hh reporter signal, replicate 1 = 1.95e5; firefly Hh reporter signal, replicate 2 = 2.27e5; Renilla reference signal, replicate 1 = 4124; Renilla reference signal, replicate 2 = 11016.
Depletion of CG3894 (GeneID 37959) [DRSC04429] came out at: firefly Hh reporter signal, replicate 1 = 1.65e5; firefly Hh reporter signal, replicate 2 = 74915; Renilla reference signal, replicate 1 = 3964; Renilla reference signal, replicate 2 = 3645.

In a second layout: results already given.
Gene	DRSC id	firefly Hh reporter signal, replicate 1	firefly Hh reporter signal, replicate 2	Renilla reference signal, replicate 1	Renilla reference signal, replicate 2
CG3894 (GeneID 37959)	DRSC04012	1.95e5	2.27e5	4124	11016
CG3894 (GeneID 37959)	DRSC04429	1.65e5	74915	3964	3645
